Measurements taken from patent publication US5328899A, “NPY peptide analogs” (The Salk Institute for Biological Studies, priority 1992, dated 1994).
At least one peptide structure holds a part that was inferred or is arguable (an end, a ring closure or a residue). Peptide text beside a SMILES is read from it.

Tested on: conscious rats
Test: Effect on mean arterial blood pressure (MAP) and heart rate after intra-arterial injection in conscious rats
Format: in vivo, rat
Method: Saline solutions of the peptides are injected intra-arterially into conscious rats, and arterial pressure is monitored via an indwelling femoral cannula directly coupled to a pressure transducer. […] Control animals receive saline vehicle alone.
Saline solutions of the peptides were administered intraarterially in a 100-μL bolus in an amount equal to about 0.4 mg/Kg body weight.

`CC(C)C[C@H](NC(=O)[C@H](CO)NC(=O)[C@H](C)NC(=O)[C@H](Cc1ccc(O)cc1)NC(=O)[C@H](Cc1ccc(O)cc1)NC(=O)[C@H](CCCNC(=N)N)NC(=O)[C@H](CO)NC(=O)[C@@H](N)CC(C)C)C(=O)N[C@@H](CCCNC(=N)N)C(=O)N[C@@H](Cc1c[nH]cn1)C(=O)N[C@@H](Cc1ccc(O)cc1)C(=O)N[C@@H](CC(C)C)C(=O)N[C@@H](CC(N)=O)C(=O)N[C@@H](CC(C)C)C(=O)N[C@H](C(=O)N[C@H](C(=O)N[C@@H](CCCNC(=N)N)C(=O)N[C@@H](CCC(N)=O)C(=O)N[C@@H](CCCNC(=N)N)C(=O)N[C@@H](Cc1ccc(O)cc1)C(N)=O)[C@@H](C)O)C(C)C` [PYY(17-36), pPYY(17-36)] (H-LSRYYASLRHYLNLVTRQRY-NH2) was tested, and the “decrease in MAP at 5 and 15 minute intervals” value was “significantly decrease MAP”.
